Results are given in words; binding and its absence hold for the method and conditions named. In cells and extracts the contact can be indirect. Some binding calls cover weakened binding; strength is not graded here.
Molecular target: Microtubule actin crosslinking factor 1 (MACF1) (mouse (endogenous in mouse MSCs)) (UniProt Q9QXZ0)
Assay: co-IP; anti-MACF1 immunoprecipitation from osteo-induced wild type MSCs, SMAD7 detected in the precipitate

Sequences of proteins named here, by UniProt entry; tags and fusion partners are left off.
UniProt O35253: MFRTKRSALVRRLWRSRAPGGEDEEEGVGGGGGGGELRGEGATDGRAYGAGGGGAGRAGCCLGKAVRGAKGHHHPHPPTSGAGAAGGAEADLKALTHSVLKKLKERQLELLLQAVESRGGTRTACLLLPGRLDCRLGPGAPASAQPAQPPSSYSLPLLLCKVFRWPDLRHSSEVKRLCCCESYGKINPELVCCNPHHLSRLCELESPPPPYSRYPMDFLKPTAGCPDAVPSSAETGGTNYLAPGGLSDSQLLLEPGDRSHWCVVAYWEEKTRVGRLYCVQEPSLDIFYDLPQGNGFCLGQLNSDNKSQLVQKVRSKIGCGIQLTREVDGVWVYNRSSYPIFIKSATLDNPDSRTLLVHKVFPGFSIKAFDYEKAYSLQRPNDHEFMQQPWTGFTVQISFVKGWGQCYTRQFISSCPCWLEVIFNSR

- binding: binds
Substance: SMAD family member 7 (SMAD7) (from UniProt O35253 1-426)

From article PMC7140458
